Assay results published in PMC7369900 (International Journal of Molecular Sciences, 2020).
HELM strings list residues between dots; [ac] is acetyl, [am] amide, other brackets name non-standard units.

Assay: general procedure: Fmoc solid-phase peptide synthesis; TentaGel S RAM resin (substitution 0.24 meq/g, Rapp Polymere); N,N′-diisopropylcarbodiimide (manual attachment of Boc-CIP and LVX)

Question: Which isolated yield (whole synthesis, total yield, scale of the general procedure 50 μmole) does the source give for “PEPTIDE1{C.A.G.Y.L.L.G.K.I.N.L.K.A.L.A.A.L.A.K.K.I.L.[am]}|PEPTIDE2{C.[CIP-N]}$PEPTIDE1,PEPTIDE2,1:R3-1:R3$$$V2.0” here?
Answer: 19%

Question: Which conjugation yield (conjugation step) does the source give for “PEPTIDE1{C.A.G.Y.L.L.G.K.I.N.L.K.A.L.A.A.L.A.K.K.I.L.[am]}|PEPTIDE2{[LVX-CO].C}$PEPTIDE1,PEPTIDE2,1:R3-2:R3$$$V2.0” here?
Answer: 20%
